Laboratory results published in article PMC6923656.
Results are given in words; binding and its absence hold for the method and conditions named. Binding seen in cells or lysates may run through a third protein.

Sequences of proteins named here, by UniProt entry; tags and fusion partners are left off.
UniProt D3ZGB1: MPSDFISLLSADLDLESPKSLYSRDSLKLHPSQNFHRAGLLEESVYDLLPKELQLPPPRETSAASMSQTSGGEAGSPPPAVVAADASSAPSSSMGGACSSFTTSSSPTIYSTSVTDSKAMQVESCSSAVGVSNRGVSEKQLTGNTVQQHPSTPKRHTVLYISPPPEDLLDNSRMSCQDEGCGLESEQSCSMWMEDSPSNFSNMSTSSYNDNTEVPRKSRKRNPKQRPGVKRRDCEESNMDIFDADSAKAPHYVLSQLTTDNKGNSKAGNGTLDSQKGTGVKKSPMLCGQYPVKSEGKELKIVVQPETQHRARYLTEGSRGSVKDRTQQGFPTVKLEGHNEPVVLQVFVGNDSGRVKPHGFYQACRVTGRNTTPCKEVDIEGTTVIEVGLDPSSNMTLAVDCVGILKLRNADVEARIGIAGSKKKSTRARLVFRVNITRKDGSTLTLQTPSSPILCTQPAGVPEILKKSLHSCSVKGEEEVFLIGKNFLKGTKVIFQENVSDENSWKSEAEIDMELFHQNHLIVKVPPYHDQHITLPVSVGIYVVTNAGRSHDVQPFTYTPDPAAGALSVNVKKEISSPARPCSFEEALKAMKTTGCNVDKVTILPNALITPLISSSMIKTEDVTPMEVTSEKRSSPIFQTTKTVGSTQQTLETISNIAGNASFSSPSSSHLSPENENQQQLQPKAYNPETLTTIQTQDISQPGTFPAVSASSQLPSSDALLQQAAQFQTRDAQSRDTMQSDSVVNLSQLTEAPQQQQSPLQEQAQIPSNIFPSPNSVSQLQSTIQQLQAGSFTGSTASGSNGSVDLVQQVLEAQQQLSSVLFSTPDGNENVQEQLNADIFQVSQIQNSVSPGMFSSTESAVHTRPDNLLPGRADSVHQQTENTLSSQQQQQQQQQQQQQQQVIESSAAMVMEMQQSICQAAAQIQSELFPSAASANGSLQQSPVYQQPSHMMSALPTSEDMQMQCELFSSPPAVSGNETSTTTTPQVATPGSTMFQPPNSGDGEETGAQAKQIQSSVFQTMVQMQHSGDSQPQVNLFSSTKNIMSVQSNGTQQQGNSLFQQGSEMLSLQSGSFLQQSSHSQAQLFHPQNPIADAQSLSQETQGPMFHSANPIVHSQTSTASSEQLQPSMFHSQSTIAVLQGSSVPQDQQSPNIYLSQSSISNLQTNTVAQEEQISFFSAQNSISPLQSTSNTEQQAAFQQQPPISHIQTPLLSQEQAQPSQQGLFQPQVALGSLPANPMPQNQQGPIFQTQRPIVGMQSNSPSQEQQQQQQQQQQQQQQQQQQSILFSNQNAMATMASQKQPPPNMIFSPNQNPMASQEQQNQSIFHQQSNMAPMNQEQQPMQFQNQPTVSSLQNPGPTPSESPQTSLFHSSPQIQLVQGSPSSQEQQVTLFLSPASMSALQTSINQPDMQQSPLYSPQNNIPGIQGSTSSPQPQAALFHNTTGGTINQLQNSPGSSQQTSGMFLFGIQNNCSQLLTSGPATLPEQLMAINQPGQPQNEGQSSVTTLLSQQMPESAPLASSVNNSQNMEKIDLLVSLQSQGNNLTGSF
UniProt O35800: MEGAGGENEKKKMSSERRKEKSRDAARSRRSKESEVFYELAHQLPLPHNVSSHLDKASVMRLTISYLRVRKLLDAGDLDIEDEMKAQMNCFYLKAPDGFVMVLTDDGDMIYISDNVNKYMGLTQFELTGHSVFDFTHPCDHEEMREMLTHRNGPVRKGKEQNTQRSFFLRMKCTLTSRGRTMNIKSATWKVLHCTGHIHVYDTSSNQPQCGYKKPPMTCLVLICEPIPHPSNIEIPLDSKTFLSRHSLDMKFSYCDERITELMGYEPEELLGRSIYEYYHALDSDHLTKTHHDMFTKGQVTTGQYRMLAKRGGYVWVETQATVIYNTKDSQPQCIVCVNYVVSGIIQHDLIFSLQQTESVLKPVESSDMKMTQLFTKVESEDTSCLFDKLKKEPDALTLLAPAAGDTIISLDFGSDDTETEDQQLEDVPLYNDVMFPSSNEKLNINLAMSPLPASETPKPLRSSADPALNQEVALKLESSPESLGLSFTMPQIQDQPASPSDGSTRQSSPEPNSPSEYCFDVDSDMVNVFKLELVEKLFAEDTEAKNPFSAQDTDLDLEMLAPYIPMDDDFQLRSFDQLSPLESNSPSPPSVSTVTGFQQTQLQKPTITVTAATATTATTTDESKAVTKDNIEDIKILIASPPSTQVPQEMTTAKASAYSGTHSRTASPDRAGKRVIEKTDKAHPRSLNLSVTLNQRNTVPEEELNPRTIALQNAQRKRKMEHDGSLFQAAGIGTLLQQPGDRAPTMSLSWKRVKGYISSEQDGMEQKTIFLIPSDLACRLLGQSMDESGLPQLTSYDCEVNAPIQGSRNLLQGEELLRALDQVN

Key:
[1] = target: nuclear factor of activated T cells 5 (NFAT5) (rat (endogenous in primary hippocampal neurons)) (UniProt D3ZGB1); test: co-IP; endogenous proteins in lysate of primary hippocampal neurons collected 6 h after OGD; RIPA buffer (50 mM Tris-HCl pH 7.4, 150 mM NaCl, 0.5% Triton X-100, 1 mM PMSF); precleared with protein A/G Sepharose, immunoprecipitated with antibodies against NFAT5, HIF-1α or IgG for 12 h at 4°C; four washes with RIPA buffer; western blot; both orientations
[2] = target: hypoxia-inducible factor-1α (HIF-1α) (rat (endogenous in primary hippocampal neurons)) (UniProt O35800); test: as above

Row | binding [1] | binding [2] | Substance
1 | no binding | – | hypoxia-inducible factor-1α (HIF-1α) (from UniProt O35800 1-825)
2 | – | no binding | nuclear factor of activated T cells 5 (NFAT5) (from UniProt D3ZGB1 1-1548)
